Patent US20190310259A1
No constants are given. Whether binding was seen depends on the method and setting. In cells and extracts the contact can be indirect. Some binding calls cover weakened binding; strength is not graded here.

The chains behind the UniProt entries cited, without tags or fusion partners. Where a name states a change or a piece, a line headed by the entry shows the natural chain unless it says otherwise.
UniProt Q00987: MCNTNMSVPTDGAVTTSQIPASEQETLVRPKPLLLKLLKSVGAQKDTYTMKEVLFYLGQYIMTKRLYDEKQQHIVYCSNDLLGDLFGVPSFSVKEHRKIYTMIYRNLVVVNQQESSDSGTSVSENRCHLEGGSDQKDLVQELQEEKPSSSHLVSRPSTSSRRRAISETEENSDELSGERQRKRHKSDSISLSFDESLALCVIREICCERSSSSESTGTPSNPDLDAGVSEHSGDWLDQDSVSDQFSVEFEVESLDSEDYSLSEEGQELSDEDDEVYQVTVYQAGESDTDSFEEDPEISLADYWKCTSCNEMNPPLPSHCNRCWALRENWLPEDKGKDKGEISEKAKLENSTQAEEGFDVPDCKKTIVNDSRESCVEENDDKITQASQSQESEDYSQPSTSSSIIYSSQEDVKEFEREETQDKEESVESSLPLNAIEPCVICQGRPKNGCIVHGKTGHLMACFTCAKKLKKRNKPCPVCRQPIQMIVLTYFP
UniProt Q9NR12: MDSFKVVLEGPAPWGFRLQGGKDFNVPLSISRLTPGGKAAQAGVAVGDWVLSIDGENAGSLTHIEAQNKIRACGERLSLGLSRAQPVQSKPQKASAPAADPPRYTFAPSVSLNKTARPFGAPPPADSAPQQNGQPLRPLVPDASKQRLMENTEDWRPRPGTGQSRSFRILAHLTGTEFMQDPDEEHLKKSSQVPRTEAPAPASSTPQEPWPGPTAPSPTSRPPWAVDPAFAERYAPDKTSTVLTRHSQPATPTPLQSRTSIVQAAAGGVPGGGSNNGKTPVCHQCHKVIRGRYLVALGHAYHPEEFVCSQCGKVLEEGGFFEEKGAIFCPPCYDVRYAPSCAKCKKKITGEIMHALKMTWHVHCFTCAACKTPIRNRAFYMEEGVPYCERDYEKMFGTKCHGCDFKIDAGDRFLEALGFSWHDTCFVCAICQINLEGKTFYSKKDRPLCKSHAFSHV

Legend:
[1] = biological target: MDM2 (UniProt Q00987); test: co-immunoprecipitation from serum-starved responder cells (FIG. 13D)
[2] = biological target: MDM2 (UniProt Q00987); test: co-immunoprecipitation from serum-starved (0.5% FBS) responder cells

binding [1]: binds | binding [2]: binds
Substance: Enigma (PDZ And LIM Domain 7, PDLIM7) (from UniProt Q9NR12 1-457)
